Results are given in words; binding and its absence hold for the method and conditions named. Some entries that bind do so weakly or less than the wild type.
Tests used:
[1] = biological target: T1, C-reactive protein (rCRP) (manufactured by Oriental Yeast Co., Ltd.) (UniProt P02741); experiment: ELISA; rCRP (0.5 µg/mL) immobilized on plate, culture supernatant, HRP-labeled anti-rabbit IgG detection
T1 sequence (looked up): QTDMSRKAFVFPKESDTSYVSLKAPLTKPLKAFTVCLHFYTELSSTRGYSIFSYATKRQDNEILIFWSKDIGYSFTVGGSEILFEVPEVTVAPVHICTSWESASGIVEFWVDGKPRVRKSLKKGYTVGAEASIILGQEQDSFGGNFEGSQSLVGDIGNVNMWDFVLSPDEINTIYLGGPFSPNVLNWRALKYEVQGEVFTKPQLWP

[2] = biological target: T1, C-reactive protein (rCRP) (manufactured by Oriental Yeast Co., Ltd.); experiment: Western blot; rCRP after SDS-PAGE on PVDF membrane, HRP goat anti-rabbit IgG secondary

B1: anti-rCRP rabbit monoclonal antibody (antibody, V domains shown)
VH: QSVEESGGRLVKPDETLTLTCTVSGIDLSSDAMSWVRQAPGKGLEYIGIISSSGSTYYASWAKGRFTISRTSTTVDLKMTSPTTEDTATYFCARVADGVYRGVVLVSYLNLWGPGTLVTVSS
VL: AQVLTQTPSSVSAAVGGTVTINCQSSPSVFSNYLSWYQQKPGQPPKLLIYRASTLASGGPSRFKGSGSGAQFTLTISDVQCDDAATYYCAGGYTTTSDGYAFGGGTEVVVKG
B1 was tested, and the binding [1] was “binds” and the binding [2] was “binds”.
